Reference: PMC9238395, “Identification and Tetramer Structure of Hemin-Binding Protein SPD_0310 Linked to Iron Homeostasis and Virulence of Streptococcus pneumoniae” (mSystems, 2022)
Results are given in words; binding and its absence hold for the method and conditions named.

Protein sequences, listed by entry. Tags and fused reporters are not part of them. Residues count along the entry.
UniProt P02769, residues 25-607: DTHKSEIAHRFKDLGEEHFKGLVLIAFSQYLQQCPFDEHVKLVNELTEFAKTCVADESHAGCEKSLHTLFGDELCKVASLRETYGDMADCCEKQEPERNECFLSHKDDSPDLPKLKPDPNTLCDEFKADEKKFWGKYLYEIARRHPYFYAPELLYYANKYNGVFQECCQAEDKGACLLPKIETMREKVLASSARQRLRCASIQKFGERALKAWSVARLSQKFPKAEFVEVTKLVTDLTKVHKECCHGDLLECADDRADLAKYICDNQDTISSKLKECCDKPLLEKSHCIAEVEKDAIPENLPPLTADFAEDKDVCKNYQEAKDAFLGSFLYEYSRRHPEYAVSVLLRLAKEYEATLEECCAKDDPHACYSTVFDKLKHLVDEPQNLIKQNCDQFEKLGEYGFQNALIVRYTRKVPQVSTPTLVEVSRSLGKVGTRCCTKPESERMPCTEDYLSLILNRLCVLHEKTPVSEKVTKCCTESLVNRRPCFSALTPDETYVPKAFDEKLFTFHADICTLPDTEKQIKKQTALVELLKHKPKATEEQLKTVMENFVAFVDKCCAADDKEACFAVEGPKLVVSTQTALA

T1: SPD_0310 (S. pneumoniae D39) (UniProt Q04MC1)
T1 sequence: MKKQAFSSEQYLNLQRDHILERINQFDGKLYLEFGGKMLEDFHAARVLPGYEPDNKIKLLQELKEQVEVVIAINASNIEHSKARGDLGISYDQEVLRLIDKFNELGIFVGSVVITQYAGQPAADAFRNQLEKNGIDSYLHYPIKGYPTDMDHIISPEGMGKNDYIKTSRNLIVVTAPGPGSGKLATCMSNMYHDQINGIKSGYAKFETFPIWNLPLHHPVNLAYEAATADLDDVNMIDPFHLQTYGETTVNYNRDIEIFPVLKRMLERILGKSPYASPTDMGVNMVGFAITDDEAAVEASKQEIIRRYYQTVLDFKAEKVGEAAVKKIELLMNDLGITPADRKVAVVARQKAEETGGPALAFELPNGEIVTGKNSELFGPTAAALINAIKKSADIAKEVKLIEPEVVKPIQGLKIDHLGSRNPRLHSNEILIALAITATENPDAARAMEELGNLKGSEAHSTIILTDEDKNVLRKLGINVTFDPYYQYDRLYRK

B1: SPD_0310 (natural protein)
chain: MKKQAFSSEQYLNLQRDHILERINQFDGKLYLEFGGKMLEDFHAARVLPGYEPDNKIKLLQELKEQVEVVIAINASNIEHSKARGDLGISYDQEVLRLIDKFNELGIFVGSVVITQYAGQPAADAFRNQLEKNGIDSYLHYPIKGYPTDMDHIISPEGMGKNDYIKTSRNLIVVTAPGPGSGKLATCMSNMYHDQINGIKSGYAKFETFPIWNLPLHHPVNLAYEAATADLDDVNMIDPFHLQTYGETTVNYNRDIEIFPVLKRMLERILGKSPYASPTDMGVNMVGFAITDDEAAVEASKQEIIRRYYQTVLDFKAEKVGEAAVKKIELLMNDLGITPADRKVAVVARQKAEETGGPALAFELPNGEIVTGKNSELFGPTAAALINAIKKSADIAKEVKLIEPEVVKPIQGLKIDHLGSRNPRLHSNEILIALAITATENPDAARAMEELGNLKGSEAHSTIILTDEDKNVLRKLGINVTFDPYYQYDRLYRK
notes: SPD_0310, hypothetical protein of the UPF0371 family, S. pneumoniae D39; spd_0310 gene cloned from genomic DNA into pGEX-4T-1 (BamH I/Sal I); Homotetramer by crystal structure and DLS; also called apo-0310; apo-SPD_0310

How the values were obtained:
[1] = target: T1, SPD_0310 (S. pneumoniae D39); assay: SPR; OpenSPR; SPD_0310 immobilised on a gold nanoparticle COOH sensor chip; analytes in 1× PBS, 30 μL/min; regeneration with 0.5 to ~10 mM HCl; 1:1 model; both purified
[2] = target: T1, SPD_0310 (S. pneumoniae D39); assay: dynamic light scattering; SPD_0310 in 1× PBS with 10% SDS, 25°C; both purified

| Molecule | binding [1] | binding [2] |
| --- | --- | --- |
| bovine serum albumin (from UniProt P02769 25-607) | no binding |  |
| B1 |  | no binding (condition: with 10% SDS) |
